Values from PubChem BioAssay AID720505 (Drosophila RNAi Screening Center, 2013)

Assay: 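Knock-downs that reduce calcium influx once internal stores are emptied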 (primary screen)
Cell system: Drosophila S2R+ cells
Knock-down reagent: long dsRNA against Drosophila genes
Treatment: thapsigargin (2 µM) in calcium-free buffer to empty internal stores, then 2 mM calcium added back
Measurement: 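Fluo-4 signal in 384-well plates read on a FLIPR after thapsigargin (2 µM, calcium-free) store depletion and 2 mM calcium add-back; unnormalised mean endpoint per well; screen run twice, selected wells retested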
Direction: calcium signal: higher = more calcium entry after store depletion
Call rule: 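Knock-downs counted as hits when calcium entry dropped relative to STIM1 positive and Rho1 negative controls present on each plate; roughly 1500 genes called, with reductions of differing size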
Meaning of the calls: active = called as lowering calcium entry; inactive = not called
The screen tested about 20,000 reagents; this is an unselected part of those with a known target gene and a result. In the full data, about 2,100 (10%) got an active call. 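Raw plate signals without normalisation; calls rest on control-based scores that were not deposited; replicate 2 separates called from uncalled poorly.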 Entries without a mark were called inactive. Not given: the amount of reagent, the time to read-out.

CG31249 [DRSC16248] — calcium signal, replicate 1 = 70.4 (active); calcium signal, replicate 2 = 140
chif (chiffon) [DRSC03508] — calcium signal, replicate 1 = 124; calcium signal, replicate 2 = 109
CG7706 [DRSC16295] — calcium signal, replicate 1 = 124; calcium signal, replicate 2 = 192
Peritrophin-15a [DRSC02636] — calcium signal, replicate 1 = 144; calcium signal, replicate 2 = 113
Ephrin [DRSC17165] — calcium signal, replicate 1 = 136; calcium signal, replicate 2 = 169
Eh (Eclosion hormone) [DRSC16660] — calcium signal, replicate 1 = 166; calcium signal, replicate 2 = 129
ms(3)76Cc (male sterile (3) 76Cc) [DRSC11071] — calcium signal, replicate 1 = 110; calcium signal, replicate 2 = 136
ms(3)76Cc (male sterile (3) 76Cc) [DRSC21630] — calcium signal, replicate 1 = 117; calcium signal, replicate 2 = 126
CG43071 [DRSC05753] — calcium signal, replicate 1 = 156; calcium signal, replicate 2 = 119
or (orange) [DRSC04329] — calcium signal, replicate 1 = 134; calcium signal, replicate 2 = 242
Dyrk2 (Dual-specificity tyrosine phosphorylation-regulated kinase 2) [DRSC03610] — calcium signal, replicate 1 = 104; calcium signal, replicate 2 = 130
CG13494 [DRSC04139] — calcium signal, replicate 1 = 146; calcium signal, replicate 2 = 106
CG3337 [DRSC15478] — calcium signal, replicate 1 = 100; calcium signal, replicate 2 = 142
Ranbp16 [DRSC20160] — calcium signal, replicate 1 = 90.7; calcium signal, replicate 2 = 143
atk (artichoke) [DRSC11418] — calcium signal, replicate 1 = 6114; calcium signal, replicate 2 = 115
atk (artichoke) [DRSC11769] — calcium signal, replicate 1 = 136; calcium signal, replicate 2 = 165
CG3505 [DRSC15489] — calcium signal, replicate 1 = 154; calcium signal, replicate 2 = 124

Active calls (from the list above):
CG31249 [DRSC16248] — calcium signal, replicate 1 = 70.4 (active); calcium signal, replicate 2 = 140

The results go on:
eIF3i (eukaryotic translation initiation factor 3 subunit i) [DRSC03464] — calcium signal, replicate 1 = 56.5 (active); calcium signal, replicate 2 = 108
l(2)gl (lethal (2) giant larvae) [DRSC00825] — calcium signal, replicate 1 = 163; calcium signal, replicate 2 = 215
Mst84B (Male-specific transcript 84B) [DRSC12579] — calcium signal, replicate 1 = 118; calcium signal, replicate 2 = 168
Osi10b (Osiris 10b) [DRSC12279] — calcium signal, replicate 1 = 112; calcium signal, replicate 2 = 88.1
Plekhm1 (Pleckstrin homology and RUN domain containing M1) [DRSC04527] — calcium signal, replicate 1 = 64.5; calcium signal, replicate 2 = 161
Hsp27 (Heat shock protein 27) [DRSC11190] — calcium signal, replicate 1 = 86.4; calcium signal, replicate 2 = 107
IntS9 (Integrator 9) [DRSC10493] — calcium signal, replicate 1 = 98.3; calcium signal, replicate 2 = 77
CG11231 (retired record) [DRSC17207] — calcium signal, replicate 1 = 77.1; calcium signal, replicate 2 = 108
Hn (Henna) [DRSC11184] — calcium signal, replicate 1 = 50.4 (active); calcium signal, replicate 2 = 80
CG31792 [DRSC02604] — calcium signal, replicate 1 = 137; calcium signal, replicate 2 = 113
CG34232 [DRSC05332] — calcium signal, replicate 1 = 82.6; calcium signal, replicate 2 = 101
